Our source for the binding values is PMC7072417.

By UniProt entry, the sequences of proteins in these tests, tags left out.
UniProt P68101: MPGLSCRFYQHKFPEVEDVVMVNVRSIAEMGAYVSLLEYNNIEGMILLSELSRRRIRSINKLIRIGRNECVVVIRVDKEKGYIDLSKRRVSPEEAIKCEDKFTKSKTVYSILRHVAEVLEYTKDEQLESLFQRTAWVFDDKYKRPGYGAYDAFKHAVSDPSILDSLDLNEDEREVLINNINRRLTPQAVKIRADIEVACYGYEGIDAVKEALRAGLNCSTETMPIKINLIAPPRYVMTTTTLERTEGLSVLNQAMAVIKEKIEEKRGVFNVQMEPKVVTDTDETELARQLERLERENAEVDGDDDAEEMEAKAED

Holding throughout (test): co-IP; endogenous proteins immunoprecipitated from H9c2 lysates (non-denaturing lysis buffer: 20 mM Tris-HCl, 137 mM NaCl, 1% Triton X-100, 2 mM EDTA, pH 8) with anti-SIRT1, anti-eIF2α, anti-eEF2K or anti-eEF2 antibodies on G magnetic beads; Western blot; mouse and rabbit IgG as controls; for eIF2α cells treated or not with 10 μg/mL tunicamycin
On the technique in general: A western blot detects proteins with antibodies after separation by electrophoresis.

Test [1] concerns the target T1, eukaryotic elongation factor-2 kinase (rat (endogenous in H9c2)) (UniProt P70531).
T1 sequence: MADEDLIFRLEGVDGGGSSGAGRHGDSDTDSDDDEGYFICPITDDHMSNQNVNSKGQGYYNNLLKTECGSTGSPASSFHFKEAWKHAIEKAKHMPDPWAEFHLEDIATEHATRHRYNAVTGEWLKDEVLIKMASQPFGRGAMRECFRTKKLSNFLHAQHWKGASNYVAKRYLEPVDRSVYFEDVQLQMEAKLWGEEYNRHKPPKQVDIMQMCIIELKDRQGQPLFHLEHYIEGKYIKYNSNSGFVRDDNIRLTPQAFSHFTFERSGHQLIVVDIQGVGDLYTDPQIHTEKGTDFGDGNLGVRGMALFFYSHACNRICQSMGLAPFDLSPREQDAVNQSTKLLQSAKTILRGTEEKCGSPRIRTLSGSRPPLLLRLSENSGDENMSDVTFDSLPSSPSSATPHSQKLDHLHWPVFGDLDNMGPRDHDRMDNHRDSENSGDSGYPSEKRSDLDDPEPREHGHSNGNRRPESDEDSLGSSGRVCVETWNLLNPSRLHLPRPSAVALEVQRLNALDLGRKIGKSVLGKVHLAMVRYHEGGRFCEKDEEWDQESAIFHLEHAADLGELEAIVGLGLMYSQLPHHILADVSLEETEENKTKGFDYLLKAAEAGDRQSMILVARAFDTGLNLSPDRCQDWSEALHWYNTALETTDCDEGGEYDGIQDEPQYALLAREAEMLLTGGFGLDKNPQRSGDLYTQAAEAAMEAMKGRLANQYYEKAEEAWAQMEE

The target in test [2] is T2, Sirtuin 1 (rat (endogenous in H9c2)).
T2 sequence: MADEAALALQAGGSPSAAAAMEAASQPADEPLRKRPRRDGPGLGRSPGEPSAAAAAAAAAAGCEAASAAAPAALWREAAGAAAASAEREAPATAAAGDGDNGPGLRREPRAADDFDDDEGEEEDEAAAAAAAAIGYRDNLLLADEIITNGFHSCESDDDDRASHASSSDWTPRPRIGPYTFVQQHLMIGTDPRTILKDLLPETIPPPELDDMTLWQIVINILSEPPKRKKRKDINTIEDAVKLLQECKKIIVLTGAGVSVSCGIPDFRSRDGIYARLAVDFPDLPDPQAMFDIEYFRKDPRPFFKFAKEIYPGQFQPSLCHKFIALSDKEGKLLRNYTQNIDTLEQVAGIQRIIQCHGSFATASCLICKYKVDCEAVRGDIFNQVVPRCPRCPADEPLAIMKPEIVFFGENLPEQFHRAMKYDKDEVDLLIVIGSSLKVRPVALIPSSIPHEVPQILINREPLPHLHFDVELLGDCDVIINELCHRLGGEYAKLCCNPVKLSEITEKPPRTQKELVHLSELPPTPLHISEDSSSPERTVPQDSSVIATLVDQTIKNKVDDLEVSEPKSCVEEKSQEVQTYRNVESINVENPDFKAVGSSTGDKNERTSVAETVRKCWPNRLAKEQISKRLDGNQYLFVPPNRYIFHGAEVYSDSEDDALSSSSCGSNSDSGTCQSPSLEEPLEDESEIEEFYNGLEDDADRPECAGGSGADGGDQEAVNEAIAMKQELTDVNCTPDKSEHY

For test [3], the target named is T1, eukaryotic elongation factor-2 kinase (rat (endogenous in H9c2)). The source holds these as a separate data set.

Where two headings read alike, the source gives them in different places. No constants are given. Whether binding was seen depends on the method and setting. In cells and extracts the contact can be indirect. Some binding calls cover weakened binding; strength is not graded here.

Turning to eIF2α (from UniProt P68101 1-315), the binding entry in test [1] is recorded as “binds”.

B1: eukaryotic elongation factor-2 kinase (enzyme, UniProt P70531 1-724)
chain: MADEDLIFRLEGVDGGGSSGAGRHGDSDTDSDDDEGYFICPITDDHMSNQNVNSKGQGYYNNLLKTECGSTGSPASSFHFKEAWKHAIEKAKHMPDPWAEFHLEDIATEHATRHRYNAVTGEWLKDEVLIKMASQPFGRGAMRECFRTKKLSNFLHAQHWKGASNYVAKRYLEPVDRSVYFEDVQLQMEAKLWGEEYNRHKPPKQVDIMQMCIIELKDRQGQPLFHLEHYIEGKYIKYNSNSGFVRDDNIRLTPQAFSHFTFERSGHQLIVVDIQGVGDLYTDPQIHTEKGTDFGDGNLGVRGMALFFYSHACNRICQSMGLAPFDLSPREQDAVNQSTKLLQSAKTILRGTEEKCGSPRIRTLSGSRPPLLLRLSENSGDENMSDVTFDSLPSSPSSATPHSQKLDHLHWPVFGDLDNMGPRDHDRMDNHRDSENSGDSGYPSEKRSDLDDPEPREHGHSNGNRRPESDEDSLGSSGRVCVETWNLLNPSRLHLPRPSAVALEVQRLNALDLGRKIGKSVLGKVHLAMVRYHEGGRFCEKDEEWDQESAIFHLEHAADLGELEAIVGLGLMYSQLPHHILADVSLEETEENKTKGFDYLLKAAEAGDRQSMILVARAFDTGLNLSPDRCQDWSEALHWYNTALETTDCDEGGEYDGIQDEPQYALLAREAEMLLTGGFGLDKNPQRSGDLYTQAAEAAMEAMKGRLANQYYEKAEEAWAQMEE
Regarding B1, the binding result in test [2] was “no binding”.

B2: Sirtuin 1 (enzyme, UniProt A0A0G2JZ79 1-741)
chain: MADEAALALQAGGSPSAAAAMEAASQPADEPLRKRPRRDGPGLGRSPGEPSAAAAAAAAAAGCEAASAAAPAALWREAAGAAAASAEREAPATAAAGDGDNGPGLRREPRAADDFDDDEGEEEDEAAAAAAAAIGYRDNLLLADEIITNGFHSCESDDDDRASHASSSDWTPRPRIGPYTFVQQHLMIGTDPRTILKDLLPETIPPPELDDMTLWQIVINILSEPPKRKKRKDINTIEDAVKLLQECKKIIVLTGAGVSVSCGIPDFRSRDGIYARLAVDFPDLPDPQAMFDIEYFRKDPRPFFKFAKEIYPGQFQPSLCHKFIALSDKEGKLLRNYTQNIDTLEQVAGIQRIIQCHGSFATASCLICKYKVDCEAVRGDIFNQVVPRCPRCPADEPLAIMKPEIVFFGENLPEQFHRAMKYDKDEVDLLIVIGSSLKVRPVALIPSSIPHEVPQILINREPLPHLHFDVELLGDCDVIINELCHRLGGEYAKLCCNPVKLSEITEKPPRTQKELVHLSELPPTPLHISEDSSSPERTVPQDSSVIATLVDQTIKNKVDDLEVSEPKSCVEEKSQEVQTYRNVESINVENPDFKAVGSSTGDKNERTSVAETVRKCWPNRLAKEQISKRLDGNQYLFVPPNRYIFHGAEVYSDSEDDALSSSSCGSNSDSGTCQSPSLEEPLEDESEIEEFYNGLEDDADRPECAGGSGADGGDQEAVNEAIAMKQELTDVNCTPDKSEHY
In the case of B2, the binding entry in test [3] is “no binding”.
